# Source: the supplement of paper PMC8728848
# This is one part of the list.
# How the values were obtained:
# Test in all cases: glycan array binding signal (z-score within array); higher = stronger binding
# Conditions in all cases: glycan notation: IUPAC condensed, linker removed
# [1] = biological target: Fuc(a1-2)Gal6S(b1-4)Glc
# In short: (§1)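 The Consortium for Functional Glycomics database supplied 3228 glycan arrays, of which those lacking an available protein sequence were dropped. The binding signal, a within-array Z-score, was averaged across arrays of the same protein sequence and across linkers. Negative scores can be read as non-binding.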
# [2] = biological target: Fuc(a1-2)Gal6S(b1-4)Glc6S
# In short: as §1
# [3] = biological target: Fuc(a1-2)Gal6S(b1-4)GlcNAc
# In short: as §1
# [4] = biological target: Fuc(a1-2)[Gal(a1-3)]Gal
# In short: as §1
# [5] = biological target: Fuc(a1-2)[Gal(a1-3)]Gal(b1-3)GalNAc
# In short: as §1
# [6] = biological target: Fuc(a1-2)[Gal(a1-3)]Gal(b1-3)GlcNAc
# In short: as §1
# [7] = biological target: Fuc(a1-2)[Gal(a1-3)]Gal(b1-3)GlcNAc(b1-2)Man(a1-3)[Fuc(a1-2)[Gal(a1-3)]Gal(b1-3)GlcNAc(b1-2)Man(a1-6)]Man(b1-4)GlcNAc(b1-4)GlcNAc
# In short: as §1
# [8] = biological target: Fuc(a1-2)[Gal(a1-3)]Gal(b1-3)GlcNAc(b1-2)Man(a1-3)[Fuc(a1-2)[Gal(a1-3)]Gal(b1-3)GlcNAc(b1-2)Man(a1-6)]Man(b1-4)GlcNAc(b1-4)[Fuc(a1-6)]GlcNAc
# In short: as §1
# [9] = biological target: Fuc(a1-2)[Gal(a1-3)]Gal(b1-3)GlcNAc(b1-3)GalNAc
# In short: as §1
# [10] = biological target: Fuc(a1-2)[Gal(a1-3)]Gal(b1-4)Glc
# In short: as §1
# [11] = biological target: Fuc(a1-2)[Gal(a1-3)]Gal(b1-4)GlcNAc
# In short: as §1
# [12] = biological target: Fuc(a1-2)[Gal(a1-3)]Gal(b1-4)GlcNAc(b1-2)Man(a1-3)[Fuc(a1-2)[Gal(a1-3)]Gal(b1-4)GlcNAc(b1-2)Man(a1-6)]Man(b1-4)GlcNAc(b1-4)GlcNAc
# In short: as §1
# [13] = biological target: Fuc(a1-2)[Gal(a1-3)]Gal(b1-4)GlcNAc(b1-2)Man(a1-3)[Fuc(a1-2)[Gal(a1-3)]Gal(b1-4)GlcNAc(b1-2)Man(a1-6)]Man(b1-4)GlcNAc(b1-4)[Fuc(a1-6)]GlcNAc
# In short: as §1
# [14] = biological target: Fuc(a1-2)[Gal(a1-3)]Gal(b1-4)GlcNAc(b1-3)GalNAc
# In short: as §1
# [15] = biological target: Fuc(a1-2)[Gal(a1-3)]Gal(b1-4)GlcNAc(b1-6)GalNAc
# In short: as §1
# [16] = biological target: Fuc(a1-2)[Gal(a1-3)]Gal(b1-4)[Fuc(a1-3)]Glc
# In short: as §1
# [17] = biological target: Fuc(a1-2)[Gal(a1-3)]Gal(b1-4)[Fuc(a1-3)]GlcNAc
# In short: as §1
# [18] = biological target: Fuc(a1-2)[Gal(a1-3)]Gal(b1-4)[Fuc(a1-3)]GlcNAc(b1-3)GalNAc
# In short: as §1
# [19] = biological target: Fuc(a1-2)[Gal(a1-4)]Gal(b1-4)GlcNAc
# In short: as §1
# [20] = biological target: Fuc(a1-2)[GalNAc(a1-3)]Gal
# In short: as §1
# [21] = biological target: Fuc(a1-2)[GalNAc(a1-3)]Gal(b1-3)GalNAc(a1-3)[Fuc(a1-2)]Gal(b1-4)GlcNAc
# In short: as §1
# [22] = biological target: Fuc(a1-2)[GalNAc(a1-3)]Gal(b1-3)GlcNAc
# In short: as §1
# [23] = biological target: Fuc(a1-2)[GalNAc(a1-3)]Gal(b1-3)GlcNAc(b1-2)Man(a1-3)[Fuc(a1-2)[GalNAc(a1-3)]Gal(b1-3)GlcNAc(b1-2)Man(a1-6)]Man(b1-4)GlcNAc(b1-4)GlcNAc
# In short: as §1
# [24] = biological target: Fuc(a1-2)[GalNAc(a1-3)]Gal(b1-3)GlcNAc(b1-2)Man(a1-3)[Fuc(a1-2)[GalNAc(a1-3)]Gal(b1-3)GlcNAc(b1-2)Man(a1-6)]Man(b1-4)GlcNAc(b1-4)[Fuc(a1-6)]GlcNAc
# In short: as §1
# [25] = biological target: Fuc(a1-2)[GalNAc(a1-3)]Gal(b1-3)GlcNAc(b1-3)GalNAc
# In short: as §1
# [26] = biological target: Fuc(a1-2)[GalNAc(a1-3)]Gal(b1-3)GlcNAc(b1-6)GalNAc
# In short: as §1
# [27] = biological target: Fuc(a1-2)[GalNAc(a1-3)]Gal(b1-4)Glc
# In short: as §1
# [28] = biological target: Fuc(a1-2)[GalNAc(a1-3)]Gal(b1-4)GlcNAc
# In short: as §1
# [29] = biological target: Fuc(a1-2)[GalNAc(a1-3)]Gal(b1-4)GlcNAc(b1-2)Man(a1-3)[Fuc(a1-2)[GalNAc(a1-3)]Gal(b1-4)GlcNAc(b1-2)Man(a1-6)]Man(b1-4)GlcNAc(b1-4)GlcNAc
# In short: as §1
# [30] = biological target: Fuc(a1-2)[GalNAc(a1-3)]Gal(b1-4)GlcNAc(b1-2)Man(a1-3)[Fuc(a1-2)[GalNAc(a1-3)]Gal(b1-4)GlcNAc(b1-2)Man(a1-6)]Man(b1-4)GlcNAc(b1-4)[Fuc(a1-6)]GlcNAc
# In short: as §1
# [31] = biological target: Fuc(a1-2)[GalNAc(a1-3)]Gal(b1-4)GlcNAc(b1-3)Gal(b1-4)GlcNAc
# In short: as §1
# [32] = biological target: Fuc(a1-2)[GalNAc(a1-3)]Gal(b1-4)GlcNAc(b1-3)Gal(b1-4)GlcNAc(b1-3)Gal(b1-4)GlcNAc
# In short: as §1
# [33] = biological target: Fuc(a1-2)[GalNAc(a1-3)]Gal(b1-4)GlcNAc(b1-3)GalNAc
# In short: as §1
# [34] = biological target: Fuc(a1-2)[GalNAc(a1-3)]Gal(b1-4)[Fuc(a1-3)]GlcNAc
# In short: as §1
# [35] = biological target: Fuc(a1-2)[GalNAc(a1-3)]Gal(b1-4)[Fuc(a1-3)]GlcNAc(b1-3)GalNAc
# In short: as §1
# [36] = biological target: Fuc(a1-2)[GalNAc(a1-4)]Gal(b1-4)GlcNAc
# In short: as §1
# [37] = biological target: Fuc(a1-2)[GalNAc(b1-3)]Gal
# In short: as §1
# [38] = biological target: Fuc(a1-3)GlcNAc
# In short: as §1
# [39] = biological target: Fuc(a1-3)[Gal(b1-4)]Glc6S
# In short: as §1
# [40] = biological target: Fuc(a1-3)[Gal(b1-4)]GlcNAc
# In short: as §1
# [41] = biological target: Fuc(a1-3)[Gal(b1-4)]GlcNAc(b1-2)Man
# In short: as §1
# [42] = biological target: Fuc(a1-3)[Gal(b1-4)]GlcNAc(b1-2)Man(a1-3)[Fuc(a1-3)[Gal(b1-4)]GlcNAc(b1-2)Man(a1-6)]Man(b1-4)GlcNAc(b1-4)GlcNAc
# In short: as §1
# [43] = biological target: Fuc(a1-3)[Gal(b1-4)]GlcNAc(b1-2)Man(a1-3)[Fuc(a1-3)[Gal(b1-4)]GlcNAc(b1-2)Man(a1-6)]Man(b1-4)GlcNAc(b1-4)[Fuc(a1-6)]GlcNAc
# In short: as §1
# [44] = biological target: Fuc(a1-3)[Gal(b1-4)]GlcNAc(b1-3)Gal(b1-3)[Fuc(a1-4)]GlcNAc
# In short: as §1
# [45] = biological target: Fuc(a1-3)[Gal(b1-4)]GlcNAc(b1-3)GalNAc
# In short: as §1
binder,measurement,setting,value
CALR truncated at D342 (Homo sapiens) (protein) EPAVYFKEQFLDGDGWTSRWIESKHKSDFGKFVLSSGKFYGDEEKDKGLQTSQDARFYALSASFEPFSNKGQTLVVQFTVKHEQNIDCGGGYVKLFPNSLDQTDMHGDSEYNIMFGPDICGPGTKKVHVIFNYKGKNVLINKDIRCKDDEFTHLYTLIVRPDNTYEVKIDNSQVESGSLEDDWDFLPPKKIKDPDASKPEDWDERAKIDDPTDSKPEDWDKPEHIPDPDAKKPEDWDEEMDGEWEPPVIQNPEYKGEWKPRQIDNPDYKGTWIHPEIDNPEYSPDPSIYAYDNFGVLGLDLWQVKSGTIFDNFLITNDEAYAEEFGNETWGVTKAAEKQMKD,glycan array binding signal (z-score),[1],-0.856
same,glycan array binding signal (z-score),[2],0.034
same,glycan array binding signal (z-score),[3],-2.21
same,glycan array binding signal (z-score),[4],1.78
same,glycan array binding signal (z-score),[5],0.091
same,glycan array binding signal (z-score),[6],0.52
same,glycan array binding signal (z-score),[7],0.715
same,glycan array binding signal (z-score),[8],1.85
same,glycan array binding signal (z-score),[9],-0.585
same,glycan array binding signal (z-score),[10],-0.897
same,glycan array binding signal (z-score),[11],-0.602
same,glycan array binding signal (z-score),[12],0.479
same,glycan array binding signal (z-score),[13],-0.488
same,glycan array binding signal (z-score),[14],-0.131
same,glycan array binding signal (z-score),[15],-0.397
same,glycan array binding signal (z-score),[16],1.12
same,glycan array binding signal (z-score),[17],-0.484
same,glycan array binding signal (z-score),[18],-0.083
same,glycan array binding signal (z-score),[19],-1.31
same,glycan array binding signal (z-score),[20],-1.15
same,glycan array binding signal (z-score),[21],-0.154
same,glycan array binding signal (z-score),[22],-0.084
same,glycan array binding signal (z-score),[23],-0.878
same,glycan array binding signal (z-score),[24],0.19
same,glycan array binding signal (z-score),[25],-0.928
same,glycan array binding signal (z-score),[26],-0.845
same,glycan array binding signal (z-score),[27],-0.381
same,glycan array binding signal (z-score),[28],0.349
same,glycan array binding signal (z-score),[29],0.156
same,glycan array binding signal (z-score),[30],-1.45
same,glycan array binding signal (z-score),[31],-0.728
same,glycan array binding signal (z-score),[32],-0.104
same,glycan array binding signal (z-score),[33],-1.06
same,glycan array binding signal (z-score),[34],0.29
same,glycan array binding signal (z-score),[35],1.12
same,glycan array binding signal (z-score),[36],-0.449
same,glycan array binding signal (z-score),[37],0.135
same,glycan array binding signal (z-score),[38],-0.849
same,glycan array binding signal (z-score),[39],-0.398
same,glycan array binding signal (z-score),[40],0.569
same,glycan array binding signal (z-score),[41],-0.828
same,glycan array binding signal (z-score),[42],0.479
same,glycan array binding signal (z-score),[43],1.53
same,glycan array binding signal (z-score),[44],-0.032
same,glycan array binding signal (z-score),[45],-0.436

# Reprinted at random: two entries already listed.
binder,measurement,setting,value
CALR truncated at D342 (Homo sapiens) (protein) EPAVYFKEQFLDGDGWTSRWIESKHKSDFGKFVLSSGKFYGDEEKDKGLQTSQDARFYALSASFEPFSNKGQTLVVQFTVKHEQNIDCGGGYVKLFPNSLDQTDMHGDSEYNIMFGPDICGPGTKKVHVIFNYKGKNVLINKDIRCKDDEFTHLYTLIVRPDNTYEVKIDNSQVESGSLEDDWDFLPPKKIKDPDASKPEDWDERAKIDDPTDSKPEDWDKPEHIPDPDAKKPEDWDEEMDGEWEPPVIQNPEYKGEWKPRQIDNPDYKGTWIHPEIDNPEYSPDPSIYAYDNFGVLGLDLWQVKSGTIFDNFLITNDEAYAEEFGNETWGVTKAAEKQMKD,glycan array binding signal (z-score),[42],0.479
same,glycan array binding signal (z-score),[8],1.85
